According to paper PMC7586679:
No constants are given. Whether binding was seen depends on the method and setting. Binding seen in cells or lysates may run through a third protein. Some entries that bind do so weakly or less than the wild type.

Sequences of proteins named here, by UniProt entry; tags and fusion partners are left off. A change or cut given only in a name is not applied to a line headed by its entry.
UniProt O43791: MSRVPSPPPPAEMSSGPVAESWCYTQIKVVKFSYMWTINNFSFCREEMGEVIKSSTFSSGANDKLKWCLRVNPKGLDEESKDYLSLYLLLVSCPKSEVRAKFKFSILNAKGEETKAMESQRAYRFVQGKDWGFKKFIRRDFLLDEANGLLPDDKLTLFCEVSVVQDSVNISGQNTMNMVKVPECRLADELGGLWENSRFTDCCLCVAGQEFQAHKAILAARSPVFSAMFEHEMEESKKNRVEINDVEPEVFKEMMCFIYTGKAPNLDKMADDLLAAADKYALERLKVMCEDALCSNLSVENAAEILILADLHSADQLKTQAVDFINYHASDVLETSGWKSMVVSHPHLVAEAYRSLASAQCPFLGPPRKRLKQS
UniProt P01106: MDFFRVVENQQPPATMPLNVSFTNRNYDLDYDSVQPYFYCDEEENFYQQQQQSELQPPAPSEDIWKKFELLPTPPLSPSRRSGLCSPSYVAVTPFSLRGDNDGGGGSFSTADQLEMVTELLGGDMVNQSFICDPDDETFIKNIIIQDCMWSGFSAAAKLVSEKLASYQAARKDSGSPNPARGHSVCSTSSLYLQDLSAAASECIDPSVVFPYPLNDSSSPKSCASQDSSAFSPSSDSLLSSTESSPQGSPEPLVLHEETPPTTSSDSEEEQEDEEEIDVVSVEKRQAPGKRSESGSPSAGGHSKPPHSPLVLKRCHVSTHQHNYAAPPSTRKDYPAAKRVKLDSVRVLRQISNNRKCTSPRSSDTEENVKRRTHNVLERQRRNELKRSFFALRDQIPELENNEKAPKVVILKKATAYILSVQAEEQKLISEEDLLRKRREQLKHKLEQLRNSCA

Legend:
HA-tagged SPOP (WT) = HA-tagged SPOP (WT) (UniProt O43791); assay: co-IP; 293T cells transfected 24 h with SPOP WT and FLAG-c-Myc or ΔSBC1/ΔSBC2; Bortezomib (250 nM) for 6 h; total cell lysates; IP with anti-FLAG or anti-SPOP antibodies
[1] = target: speckle-type POZ (SPOP) (human (endogenous in 143B)) (UniProt O43791); assay: co-IP; 143B cells with or without CircECE1 knockdown; which protein was precipitated is not told

Row | binding (HA-tagged SPOP (WT)) | binding [1] | Substance
1 | binds |  | FLAG-c-Myc (WT) (from UniProt P01106-2 1-454)
2 |  | binds | c-Myc (from UniProt P01106 1-454)
